# According to PubChem BioAssay AID1347076 (National Center for Advancing Translational Sciences (NCATS), 2019):
# About 13,000 (3.2%) of roughly 400,000 compounds were called active. The shares of active, inactive and inconclusive entries below differ from those in the screen. Calls come from the whole dose curve; as a rule, active = well fitted cell-killing curve with a large enough effect; inconclusive = small, poorly fitted or top-dose-only effect, or effect the other way; inactive = flat fitted curve, though single readings scatter. Potencies beside an inconclusive call are fits to weak or partial responses and may not hold up.
# Experiment: qHTS assay for MDR1-selective chemotherapeutics: Primary screen using the drug-selected MDR subline cells KB-V1; note: nearly all actives have a fitted effect of over 60% in size
# Settings: KB-V1 MDR cells viability, CellTiter-Glo, 72 h; activity change, negative = cytotoxicity: at 46.1 µM (top of the series)
# In short: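 Luminescent ATP read-out (CellTiter-Glo, 10 min) measures survival of drug-selected KB-V1 MDR cells after 72 h, 37 degrees C compound exposure. Medium: phenol-red-free DMEM, 10% FBS. Values from fitted concentration-response curves.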
# % is set by controls: 0 for no effect and ±100 for the full control effect; potency is the fitted concentration of half-maximal effect.
SMILES,Potency,"activity change, negative = cytotoxicity"
O=C(Cn1c(C(=O)N2CCc3ccccc3C2)cc2sccc21)c1ccccc1,"inconclusive: 8.2 µM [cytotoxic, partial curve]",
O=C(CNC(=O)OCc1ccccc1)NC1CCCCCCC1,active: 18.4 µM,
COC(=O)[C@@]1(Cc2ccc(F)cc2)[C@H]2c3cc(C(=O)N4CCCC4)n(Cc4ccc(C)c(F)c4F)c3C[C@H]2CN1C(=O)c1ccccc1,active: 23.1 µM,
CCOC(=O)N1CCN(S(=O)(=O)c2ccc(OCC)c(C)c2)CC1,"inconclusive: 29.1 µM [cytotoxic, single point]",
CCCN1Cc2cccc(C(=O)NCc3ccc(C)cc3)c2C1=O,"inconclusive: 2.91 µM [cytotoxic, partial curve, poor fit]",
COc1ccccc1N1CCN(C(=O)CSc2ccc3c(C)cc(C)nc3n2)CC1,"inconclusive: 11.6 µM [cytotoxic, partial curve]",
Cc1ccccc1OCC(=O)OCc1cc(=O)n2nc(-c3cccs3)sc2n1,inactive,
CCCC(=O)Nc1nn(CC)c2nc3ccc(C)cc3cc12,inactive,
Cn1cccc1C(=O)Nc1nc(-c2ccccn2)cs1,"inconclusive: 2.06 µM [cytotoxic, full curve, poor fit]",
O=C(N/N=C/c1ccccc1)C(=O)N/N=C/c1ccccc1,inactive,
Cc1ccc(C(C)NC(=O)c2ccc3c(c2)OCCO3)cc1C (stereo not given),"inconclusive: 29.1 µM [cytotoxic, single point]",
COc1ccc(CCNC(=O)C(=O)NCC2OCCN2S(=O)(=O)c2ccc(C)cc2)cc1OC (stereo not given),"inconclusive: 9.2 µM [cytotoxic, partial curve, poor fit]",
Cc1nc(N2CCC(C)CC2)c2c(C)c(C(=O)Nc3ccc(C(F)(F)F)cc3)sc2n1,"inconclusive: 29.1 µM [cytotoxic, single point]",
COc1cccc(NC(=S)N2CCN(C(c3ccccc3)c3ccccc3)CC2)c1,inactive,
COC(=O)c1sccc1-c1ccc(C(=O)Nc2ccccc2)o1,active: 13 µM,
COc1ccc(CNC(=O)C2CC(C)=C(C)CC2C(=O)O)cc1OC (stereo not given),"inconclusive: 16.4 µM [rising, single point]",
C#CCOCCOCCOCCNc1nc(N2CCOCC2)nc(N2CCN(C(=O)[C@H](CCCN=C(N)N)n3cc(C(N)[C@@H](C)CC)nn3)CC2)n1 (stereo not given in full),"inconclusive: 29.1 µM [rising, single point]",
CCc1ncc(C(O)c2ccc(Cl)cc2)n1Cc1ccccc1 (stereo not given),"inconclusive: 16.4 µM [cytotoxic, single point]",
CC(C)c1ccc(NC2CCCN(C(=O)c3ccnn3C)C2)cc1 (stereo not given),"inconclusive: 14.6 µM [cytotoxic, partial curve]",
O=C(CSc1ncnc2c1cnn2-c1ccccc1)NC1CCS(=O)(=O)C1 (stereo not given),"inconclusive: 29.1 µM [cytotoxic, single point]",
O=C(Nc1ccc(N2CCN(C(=O)c3cccs3)CC2)cc1)c1ccc(F)cc1,active: 0.184 µM,
COc1ccc(OC)c(C2CC(c3ccc(NS(C)(=O)=O)cc3)=NN2C(=O)c2ccccc2)c1 (stereo not given),inactive,
CC(C)NC(=O)CN1CCN(Cc2nc(-c3cccs3)no2)CC1,inactive,
Cc1c(NS(=O)(=O)c2cccc(C(=O)OCC(=O)c3ccc(Cl)cc3)c2)c(=O)n(-c2ccccc2)n1C,"inconclusive: 32.6 µM [cytotoxic, single point]",

SMILES,Potency,"activity change, negative = cytotoxicity"
CCOc1ccc(N(Cc2ccc(OC)cc2)C(=O)c2ccco2)cc1,"inconclusive: 23.1 µM [cytotoxic, partial curve]",
O=C(NC(=S)NCCN1CCOCC1)c1cccc(Cl)c1,"inconclusive: 20.6 µM [cytotoxic, single point]",
O=C(NC1CCS(=O)(=O)C1)c1ccc(S(=O)(=O)NCC2CCCO2)cc1 (stereo not given),"inconclusive: 25.9 µM [rising, partial curve, poor fit]",
CCCNC(=S)Nc1ccc(S(N)(=O)=O)cc1,"inconclusive: 0.326 µM [rising, full curve]",
CCOC(=O)c1c(NC(=O)CN2C(=O)NC3(CCC(C)CC3)C2=O)sc(C)c1-c1ccc(C)cc1 (stereo not given),inactive,
CN1CCN(/C=N/c2c(C#N)cnn2-c2ccccc2)CC1,inactive,
O=[N+]([O-])c1ccccc1S(=O)(=O)Nc1cccc2cccnc12,"inconclusive: 2.31 µM [cytotoxic, full curve]",
C=CC(=O)Nc1cccc(Oc2ccnc(Nc3ccc(N4CCN(C)CC4)cc3)n2)c1,inactive,
CCCCOc1ccc(NC(=O)C(=O)NCCCn2ccnc2)cc1,"inconclusive: 20.6 µM [cytotoxic, partial curve, poor fit]",
Cn1c(SCc2ccccc2)nc2ccsc2c1=O,"inconclusive: 9.2 µM [cytotoxic, partial curve, poor fit]",
CCCN(CCC)c1ccc(CC(=O)NC(C)Cc2ccccc2)cc1 (stereo not given),"inconclusive: 29.1 µM [cytotoxic, single point]",
CCSc1nnc2n1C(C)(C)Cc1ccccc1-2,inactive,
O=C(N/N=C/c1cccs1)/C(=C/c1ccccc1)NC(=O)c1ccccc1,"inconclusive: 29.1 µM [cytotoxic, single point]",
O=C(Nc1ccc([N+](=O)[O-])cc1)C(Cc1ccccc1)N1C(=O)c2cccc3cccc(c23)C1=O (stereo not given),"inconclusive: 25.9 µM [cytotoxic, single point]",
CCc1nc2ccc(C(=O)NCCN3CCOCC3)cn2c1N(C)Cc1ccc(OC)cc1,inactive,
O=C(O)c1ccc(CNC(=O)c2ccccc2NC(=O)c2cccc([N+](=O)[O-])c2)cc1,"inconclusive: 1.84 µM [rising, full curve]",
COc1cccc(C2CCCN2Cc2nc(CCC(C)C)no2)c1 (stereo not given),inactive,
O=S(=O)(c1ccc(-c2cnc(C3CC3)o2)cc1)N1CCN(c2ccccc2)CC1,inactive,
O=C(CSc1ccccn1)N/N=C/c1cccc([N+](=O)[O-])c1,"inconclusive: 18.4 µM [rising, partial curve]",
O=C(NCCO)N1c2ccccc2Sc2ccccc21,"inconclusive: 14.6 µM [rising, single point]",
COC(=O)c1cc(=O)n(Cc2ccc(F)cc2)c(=NCc2ccc(F)cc2)s1,inactive,
COc1cc2nc(SCc3ccc(Cl)cc3)n3nc(CCn4nc(C)cc4C)nc3c2cc1OC,"inconclusive: 23.1 µM [rising, single point]",
N#Cc1ccccc1Oc1ccc(S(=O)(=O)N2CCCCC2)cn1,"inconclusive: 10.3 µM [cytotoxic, partial curve, poor fit]",
CCCCOc1ccc(OC(=O)c2sc3ncn(Cc4cccc(F)c4)c(=O)c3c2C)cc1,"inconclusive: 29.1 µM [rising, single point]",

SMILES,Potency,"activity change, negative = cytotoxicity"
N#CC1=C(N)Oc2cc(N)ccc2C1c1ccccc1F (stereo not given),active: 7.31 µM,
CCOC(=O)C1=NNC(C(=O)c2ccc(C)cc2)C1c1ccc(OC)cc1 (stereo not given),"inconclusive: 20.6 µM [cytotoxic, partial curve, poor fit]",
CN(CC(=O)Nc1ccc(C#N)cc1)Cc1ccc(Cl)cc1Cl,"inconclusive: 5.17 µM [cytotoxic, partial curve, poor fit]",
Cc1cc(N(C)C)ccc1/C=C/c1ccnc2ccccc12,,inconclusive: -28.5%
NC(=O)c1nnn(Cc2cc(Cl)c(C(=O)c3ccc(Cl)cc3)c(Cl)c2)c1N,active: 8.2 µM,
Cc1nn(C(=O)c2ccc(Cl)cc2)c(C)c1Sc1ccc(Cl)cc1,"inconclusive: 20.6 µM [cytotoxic, single point]",
CSc1nc2c([nH]1)c(=S)n(C)c(=O)n2C,inactive,
Cc1ccc(N(Cc2ccccc2)C(=O)c2cccc(S(=O)(=O)N3CCN(C)CC3)c2)cc1,"inconclusive: 4.11 µM [cytotoxic, full curve, poor fit]",
c1ccc(C2OC3c4cccc5cccc(c45)C3N2c2ccccc2)cc1 (stereo not given),inactive,
CC(=O)N1CCc2c(sc(NC(=O)c3ccc4c(c3)OCCO4)c2C#N)C1,"inconclusive: 7.31 µM [cytotoxic, partial curve, poor fit]",
CNc1ccc(/C=C2\C=Cc3ccccc32)cc1Cl,"inconclusive: 18.4 µM [cytotoxic, partial curve]",
O=C(Nc1ccc2c(c1)CCC2)Nc1nnc(-c2ccncc2)s1,"inconclusive: 29.1 µM [cytotoxic, single point]",
O=C(c1cccs1)N1CCc2c([nH]c3ccccc23)C1c1ccccn1 (stereo not given),inactive,
C[C@H](C[C@H](O)[C@H]1OC1(C)C)C1=C2C[C@H](O)C3[C@@]4(C)CCC(=O)C(C)(C)C4CC[C@]3(C)[C@@]2(C)CC1 (stereo not given in full),active: 3.66 µM,
CCOC(=O)Cn1cc(Cn2c3ccccc3c(=O)n2C(C)C)nn1,inactive,
Cc1ccc(C(=O)c2oc3nc(C)cc(C)c3c2N)cc1,"inconclusive: 32.6 µM [cytotoxic, partial curve, poor fit]",
Cc1ccccc1C(=O)OCC(=O)N(C)c1c(N)n(Cc2ccccc2)c(=O)[nH]c1=O,"inconclusive: 14.6 µM [rising, partial curve, poor fit]",
COc1ccc(N2CCN(CCNC(=O)c3ccc4nc5ccccc5c(=O)n4c3)CC2)cc1,inactive,
O=C(Cc1ccccc1Cl)N1CCN(c2ccccn2)CC1,"inconclusive: 10.3 µM [cytotoxic, partial curve, poor fit]",
CCCCCC(=O)N/N=C(\C)c1ccccn1,active: 5.17 µM,
CNC(=O)NC(=O)CSc1ccc(S(=O)(=O)N2CCOCC2)cn1,inactive,
Cc1nc2c3cc(F)ccc3n(Cc3ccccc3)c2s1,"inconclusive: 23.1 µM [cytotoxic, single point]",

# Single entries from the results shown.
# In Potency, Cc1ccc(N(Cc2ccccc2)C(=O)c2cccc(S(=O)(=O)N3CCN(C)CC3)c2)cc1 is listed with inconclusive: 4.11 µM [cytotoxic, full curve, poor fit]
# In Potency, CNc1ccc(/C=C2\C=Cc3ccccc32)cc1Cl is listed with inconclusive: 18.4 µM [cytotoxic, partial curve]
# In Potency, Cc1nn(C(=O)c2ccc(Cl)cc2)c(C)c1Sc1ccc(Cl)cc1 is listed with inconclusive: 20.6 µM [cytotoxic, single point]
